The assay in a line: qHTS Assay to Find Inhibitors of Chronic Active B-Cell Receptor Signaling. The settings on record: ABC-DLBCL IkBa-CBG/CBR reporter, luminescence ratio (green luciferase fused to IkBa over red control in TMD8 lymphoma cells), 4 h. The procedure, abridged:
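TMD8 human ABC-DLBCL cells with doxycycline-inducible IκBα–green luciferase fusion and unfused red luciferase, in 0.5% FBS medium; compounds up to 46 uM, 4 h at 37C. Green/red luminescence ratio, filter-overlap corrected, fitted to concentration-response curves.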

Where [1] appears, read: measured here: CBR red luminescence, cell number.

The list shows a part of the results. Further columns of the screen follow, without active or inactive calls. Compounds called inactive in the main read-out are mostly missing here. Potencies come from curve fits of mixed quality, noted in brackets.

As to `O=c1c2ccccc2nc2n1C1(CCCCC1)Cc1ccccc1-2`, the half-maximal activity concentration (AC50) under setting [1] was 29.1 µM [rising, single point].

As to `CCCCSc1nc2sc3c(c2c(=O)[nH]1)CC(C)(CC)OC3` (configuration not stated), the AC50 under setting [1] is 31.6 µM [rising, single point]. As to `COc1cccc(C(=O)NNC(=O)CCc2ccccc2)c1`, the concentration at half-maximal activity (AC50) under setting [1] was 11.2 µM [falling, partial curve, poor fit]. On the same count and under the same terms, in the case of `O=C(N/N=C/c1ccc(F)cc1)c1cccc(NC(=O)c2ccccc2Cl)c1` it was 35.5 µM [falling, single point]. With `CCc1oc(C(=O)OC)cc1CSC(=N)N`, under setting [1], the half-maximal activity concentration (AC50) is 35.5 µM [falling, single point].

For the compound `Cc1c(Br)cc(C(=O)NCCCN2CCOCC2)c(C)c1C`, under setting [1], the AC50 was 2.06 µM [falling, partial curve, poor fit].

With `O=C(CCc1ccccc1)c1ccc2c(c1)OCCCO2`, under setting [1], the AC50 is 0.103 µM [rising, full curve, poor fit]. For `CCN1CCN(c2c(/C=C3\SC(=S)N(Cc4ccco4)C3=O)c(C)c(C#N)c(=O)n2C)CC1`, under setting [1], the AC50 was 15.8 µM [falling, single point]. Still for that read-out and setting: in the case of `O=c1[nH]c(C2CCN(S(=O)(=O)c3ccccc3)CC2)nc2c1nnn2Cc1c(F)cccc1Cl` it was 12.6 µM [falling, partial curve]; in that of `CN(Cc1ccccc1)C(=O)COc1ccc(C(C)(C)C)cc1`, 10 µM [falling, single point]. On the same count and under the same terms, in the case of `O=C1C(Cl)=C(Nc2ccc(F)cc2)C(=O)N1CCc1ccccc1` it was 25.9 µM [falling, single point]; in that of `Cc1ccccc1N(CC(=O)N1CCOCC1)S(C)(=O)=O`, 0.631 µM [rising, full curve, poor fit]; in that of `O=C(NN=C1CCCCCC1)c1ccc2c(c1)OCO2`, 7.08 µM [falling, partial curve]. Same read-out and setting: in the case of `Cc1ccccc1-n1nnnc1SCC(C)C` it was 0.447 µM [falling, full curve, poor fit]; in that of `Cc1ccc(C(=O)Oc2oc(-c3ccccc3)nc2C=Nc2ccc(N(C)C)cc2)cc1`, 5.8 µM [falling, full curve]. As for `CN=c1scc(-c2ccc(F)cc2)n1/N=C/c1ccc(O)c(O)c1`, under setting [1], the AC50 was 17.8 µM [falling, partial curve]. Regarding `CO/N=C/NC(=O)Cc1cn(-c2ncc(C(F)(F)F)cc2Cl)c2ccccc12`, the half-maximal activity concentration (AC50) under setting [1] was 16.4 µM [falling, single point]. Still for that read-out and setting: in the case of `Cc1cccc(N(C(=O)CS(=O)CC(=O)Nc2ccc3c(c2)OCO3)C(C)C(=O)NC2CCCC2)c1C` (configuration not stated) it was 3.98 µM [rising, partial curve, poor fit]; in that of `C=CC[C@H](CC(=O)N(CCO)Cc1ccccc1)C(=O)N[C@H](C)COC(=O)[C@@H](CC=C)Cc1ccc(F)cc1`, 13 µM [falling, single point]; in that of `CC(C)CCNC(=O)CN(Cc1ccc2c(c1)OCO2)C(=O)CCC(=O)Nc1ccccn1`, 12.6 µM [rising, single point]. On the same count and under the same terms, under `O=C(Nc1cccc(S(=O)(=O)N2CCOCC2)c1)c1ccc2c(=O)n3c(nc2c1)CCCCC3` stands 35.5 µM [falling, single point]. On the same count and under the same terms, in the case of `Cc1ccc(Cn2nnc3c(=O)n(CC(=O)NCc4ccco4)cnc32)cc1` it was 29.1 µM [rising, single point].

`COc1cccc(/C=C2\CCC(C3CCCC3)C2=O)c1OC` (configuration not stated): the AC50 under setting [1] is 11.2 µM [falling, partial curve, poor fit]. With `CCOC(=O)C1=C(COC(=O)/C=C/c2ccc(O)c(OC)c2)NC(=O)NC1C` (configuration not stated), the half-maximal activity concentration (AC50) under setting [1] was 0.731 µM [rising, partial curve, poor fit] and the AC50 (measured here: IkBa-CBG green luminescence) was 14.6 µM [falling, partial curve].

Regarding `Cc1cc(C(=O)NC2CC(C)(C)Cc3c2cnn3-c2ccccc2C)c(C)o1` (configuration not stated), under setting [1], the AC50 is 17.8 µM [falling, single point]. As for `COc1ccc(C(=O)c2ccccc2)c(O)c1`, the half-maximal activity concentration (AC50) under setting [1] is 16.4 µM [rising, partial curve]. The same measure, in the same setting: in the case of `O=C(Nc1ccc2c(c1)Cc1ccccc1-2)c1cccnc1` it was 11.2 µM [falling, single point]. Consider `COc1ccc(-c2nc(Cn3c(SCc4ccc(C)cc4)nc4ccncc43)c(C)o2)cc1OC`, for which, under setting [1], the AC50 was 20.6 µM [falling, single point].

For `COc1ccc(/C(C)=N/NC(=O)c2ccc(NS(=O)(=O)c3cccs3)cc2)cc1`, under setting [1], the half-maximal activity concentration (AC50) was 10 µM [falling, partial curve]. Still for that read-out and setting: in the case of `Cc1ccc(CNC(=O)c2ccc(Cl)c(S(N)(=O)=O)c2)n1C` it was 35.5 µM [rising, single point]. For the compound `O=C(CN1C(=O)NC2(CCCCC2)C1=O)Nc1ccccc1N1CCCC1`, the AC50 under setting [1] was 18.4 µM [rising, partial curve, poor fit]. Still for that read-out and setting: under `CN(C)c1nc(-c2ccc([N+](=O)[O-])cc2)cs1` stands 14.6 µM [rising, partial curve, poor fit]; under `CSc1sc(C(=O)NCC2CC2)cc1S(=O)(=O)C(C)C`, 10 µM [rising, partial curve, poor fit]. For the compound `COc1ccc(Cl)cc1NC(=O)CSc1sc2c(O)cc(=O)[nH]c2c1C#N`, under setting [1], the AC50 is 6.31 µM [falling, single point]. Same read-out and setting: under `CCOC(=O)CSc1nc2sc3c(c2c(=O)[nH]1)CC(C)(C)OC3` stands 35.5 µM [rising, single point].

On to `COc1ccc(NCc2nnc(-c3ccccc3)o2)cc1`, for which the AC50 under setting [1] was 2 µM [rising, full curve].

With `Cc1cccc(NC(=S)NN(Cc2ccccc2)c2ccccc2)c1C`, under setting [1], the AC50 is 2.59 µM [rising, partial curve, poor fit]. On the same count and under the same terms, in the case of `CN(CC(=O)Nc1cccc(F)c1)C(=O)CSc1ccccc1F` it was 22.4 µM [rising, partial curve, poor fit].

In the case of `N#CC1=C(N)Oc2cc(O)ccc2C1C1CCCCC1` (configuration not stated), the AC50 under setting [1] is 8.91 µM [falling, single point]. As for `CCN(CC)CCn1c(=S)[nH]c2cc(C(=O)NCc3ccccc3Cl)ccc2c1=O`, under setting [1], the AC50 was 14.1 µM [falling, partial curve, poor fit]. On the same count and under the same terms, under `CC1(C)CCC[C@]2(C)[C@H]3CC(=O)O[C@]3(C)CC[C@@H]12` stands 2.82 µM [rising, partial curve, poor fit]; under `CC(=O)c1sc(Nc2nc3cc4c(cc3s2)OCO4)nc1C`, 0.355 µM [rising, full curve, poor fit].

Consider `CCCNC(=O)c1cc2cc([N+](=O)[O-])ccc2s1`, for which the half-maximal activity concentration (AC50) under setting [1] is 3.16 µM [rising, full curve, poor fit]. For the compound `CCOC(=O)c1ccc(OS(=O)(=O)c2ccccc2)c(OC)c1`, the AC50 under setting [1] is 16.4 µM [rising, partial curve]. With `CCn1c(SCC(=O)Nc2ccccc2C)nnc1-c1ccccc1O`, the AC50 under setting [1] is 0.0116 µM [falling, full curve, poor fit]. Still for that read-out and setting: in the case of `COc1cccc(CNC(=O)CN2c3cccc4cccc(c34)S2(=O)=O)c1` it was 1.64 µM [falling, full curve]; in that of `O=C(CCc1nc2ccccc2s1)Nc1ccccc1`, 29.1 µM [falling, single point]; in that of `Cc1nc(-c2ccc3c(c2)OCCCO3)cs1`, 7.08 µM [rising, full curve, poor fit].

Consider `COc1cc(C(N)=O)cc(Br)c1OC`, for which, under setting [1], the AC50 was 18.4 µM [falling, partial curve, poor fit]. The same measure, in the same setting: in the case of `O=C(/C=C/c1ccccc1)NC(=S)NNS(=O)(=O)c1ccccc1` it was 4.47 µM [rising, single point]. Still for that read-out and setting: under `CCN1CCCC1CNC(=O)c1ccc(Sc2ccccc2Cl)c([N+](=O)[O-])c1` (configuration not stated) stands 11.2 µM [falling, partial curve]; under `O=C(O)c1ccc(NC(=S)NC(NC(=O)c2ccco2)C(Cl)(Cl)Cl)cc1` (configuration not stated), 16.4 µM [falling, single point]. For the compound `COc1ccc(C2CC2/C(C)=N/OC(=O)C2CC2)cc1` (configuration not stated), under setting [1], the AC50 was 0.316 µM [rising, full curve, poor fit].

Take `Cc1ccc(C(=O)NCC(=O)Nc2ccc3c(c2)CCC3)cc1`: the AC50 under setting [1] was 8.2 µM [rising, partial curve].

For `Cc1ccc(NC(=O)C(=O)NC(C)C2COc3ccccc3O2)cc1` (configuration not stated), the half-maximal activity concentration (AC50) under setting [1] is 1.41 µM [falling, full curve]. Take `COC(=O)c1sccc1NC(=O)Cc1ccc(OC)cc1`: the half-maximal activity concentration (AC50) under setting [1] is 0.326 µM [falling, full curve]. As for `Cc1ccc(S(=O)(=O)N2CCCCC2)cc1NC(=O)CNc1ccc(C(F)(F)F)cc1`, under setting [1], the AC50 is 8.2 µM [falling, partial curve]. Still for that read-out and setting: in the case of `COc1cccc(-c2ncc3ccccc3c2COC(=O)c2ccc(Br)cc2)c1` it was 9.2 µM [falling, partial curve, poor fit]; in that of `COc1ccc2nc(NC(=O)CSc3cn[nH]n3)sc2c1`, 11.2 µM [falling, partial curve].

As for `CN(CCc1nc2ccc(Cl)cc2[nH]1)Cc1nc(CC2CC2)no1`, under setting [1], the AC50 was 0.562 µM [rising, partial curve, poor fit]. Consider `O=C1NC(=O)c2cc(NC(=O)c3cccc4ccccc34)ccc21`, for which the half-maximal activity concentration (AC50) under setting [1] is 0.316 µM [falling, full curve]. On the same count and under the same terms, in the case of `CCc1nnc(N/N=C/c2cccs2)n1N` it was 29.1 µM [falling, single point]; in that of `Cc1ccc(S(=O)(=O)Nc2ccccc2CNc2c(C)n(C)n(-c3ccccc3)c2=O)cc1`, 20 µM [rising, partial curve, poor fit]; in that of `COc1ccc(C)cc1NC(=O)c1ccc2c(c1)OCO2`, 16.4 µM [rising, partial curve]. Same read-out and setting: under `c1ccc(CSCCc2ccncc2)cc1` stands 9.2 µM [rising, partial curve]; under `N#Cc1cc2c(nc1SCc1ccccc1)CCCC2=O`, 20.6 µM [falling, partial curve, poor fit].

The values above are taken from PubChem BioAssay AID493014 (National Center for Advancing Translational Sciences (NCATS), 2011).
